{
  "source": "the supplement of paper PMC5949888",
  "note": "Most values lie at the floor of the assay. Slopes are relative: functional sequences can read slightly below zero.",
  "data": [
    {"system": "Saccharomyces cerevisiae PS128 hsf1 delta, HSF1(1-493) fusion", "experiment": "growth estimate (transactivation domain function in HSF1 fusion, heat-shock survival) (a.u. (slope of normalised read count over time)); higher = stronger growth at 37°C, i.e. more transactivation activity", "conditions": "library: random library", "experimental": "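Random 60-nt DNA library encoding peptides of up to 20 aa, fused to the C-terminus of yeast HSF1 residues 1-493 (C-terminal TAD deleted) and expressed from the native HSF1 promoter on a CEN plasmid in hsf1-deleted S. cerevisiae PS128. Cells were selected at 37°C on -trp 5-FOA plates for 0, 2, 4, 6 and 8 days and amplicons were sequenced. Growth estimate is the slope of a robust linear fit of total-sum-normalised read counts (normalised to the first time point) over time, using at least 2 replicates. Sequences are classed functional (TAD activity) above a threshold of -0.13, set from stop-codon control sequences.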", "values": [
      {"substance": "GKIRIGLMCRTLELL", "growth estimate": "< -0.25"},
      {"substance": "GKKLTSVRTAKRLYFEPMGF", "growth estimate": "< -0.25"},
      {"substance": "GKKVSATHALATSCTDCTA", "growth estimate": "< -0.25"},
      {"substance": "GKLISGVGLGECRMPGTERR", "growth estimate": -0.246},
      {"substance": "GKLPGSLSSAAGGVGYPAFR", "growth estimate": "< -0.25"},
      {"substance": "GKLVPEYQAPQGSDGALCGS", "growth estimate": "< -0.25"},
      {"substance": "GKM", "growth estimate": "< -0.25"},
      {"substance": "GKMKELHPGS", "growth estimate": "< -0.25"},
      {"substance": "GKP", "growth estimate": "< -0.25"},
      {"substance": "GKQRVV", "growth estimate": "< -0.25"},
      {"substance": "GKRRCPRRELQFHGGYPRLK", "growth estimate": "< -0.25"},
      {"substance": "GKRVFSREIIFSTLMPPYVG", "growth estimate": "< -0.25"},
      {"substance": "GKRWRETPTLVGLRMYTKLR", "growth estimate": "< -0.25"},
      {"substance": "GKSGRSQAPEELEPRQPQSR", "growth estimate": "< -0.25"},
      {"substance": "GKSLIRVLGLRLS", "growth estimate": "< -0.25"},
      {"substance": "GKTCSTSYYKAPGHSTEPGV", "growth estimate": "< -0.25"},
      {"substance": "GKYD", "growth estimate": -0.247},
      {"substance": "GLACLARVAIGGFIGAITRV", "growth estimate": "< -0.25"},
      {"substance": "GLAGYLGSGAVGRTSLLSPD", "growth estimate": "< -0.25"},
      {"substance": "GLALPQGCSVCFNAAGRRV", "growth estimate": "< -0.25"},
      {"substance": "GLALRYGFA", "growth estimate": "< -0.25"},
      {"substance": "GLANGTVAPGPVLIH", "growth estimate": "< -0.25"},
      {"substance": "GLAQFNRTRGISGIFSHFVI", "growth estimate": "< -0.25"},
      {"substance": "GLARPQVQNFLRTDSGIGIG", "growth estimate": "< -0.25"},
      {"substance": "GLASGRNVLGYLG", "growth estimate": "< -0.25"},
      {"substance": "GLASKHMPNEGPRLNDLRHT", "growth estimate": "< -0.25"},
      {"substance": "GLC", "growth estimate": "< -0.25"},
      {"substance": "GLCANLDDCVGAFVFWWR", "growth estimate": "< -0.25"},
      {"substance": "GLCCWNV", "growth estimate": "< -0.25"},
      {"substance": "GLCTRPAADTGMKSHFSR", "growth estimate": -0.248},
      {"substance": "GLCTVHAQHHSYIKGG", "growth estimate": "< -0.25"},
      {"substance": "GLDCSEYTVFRERGAPGGFR", "growth estimate": "< -0.25"},
      {"substance": "GLDEC", "growth estimate": "< -0.25"},
      {"substance": "GLDSLRCEVS", "growth estimate": "< -0.25"},
      {"substance": "GLEGNNHLR", "growth estimate": "< -0.25"},
      {"substance": "GLELDIG", "growth estimate": "< -0.25"},
      {"substance": "GLFDKGPVVLGP", "growth estimate": "< -0.25"},
      {"substance": "GLGETGVH", "growth estimate": "< -0.25"},
      {"substance": "GLGGCPECCCGDTTICCLRL", "growth estimate": -0.15},
      {"substance": "GLGQCRSCDTGQGYGRKFT", "growth estimate": "< -0.25"},
      {"substance": "GLGSGTRSARKVGRLSYEFV", "growth estimate": "< -0.25"},
      {"substance": "GLHCYYREPQKCGPDNRGLL", "growth estimate": "< -0.25"},
      {"substance": "GLHSAGSGFFFMAPLKLKRV", "growth estimate": "< -0.25"},
      {"substance": "GLHVKYIP", "growth estimate": -0.246},
      {"substance": "GLHVRARRVP", "growth estimate": "< -0.25"},
      {"substance": "GLIARTLSHGWRCQWLLRVA", "growth estimate": "< -0.25"},
      {"substance": "GLIMSRVLYSTYTQHPTISR", "growth estimate": -0.246},
      {"substance": "GLIRGHIWPV", "growth estimate": "< -0.25"},
      {"substance": "GLKFCQR", "growth estimate": "< -0.25"},
      {"substance": "GLKSTTAGGAIALRRTADKH", "growth estimate": 0.05},
      {"substance": "GLLEALIRYVRFT", "growth estimate": "< -0.25"},
      {"substance": "GLLGAGTYTATTEE", "growth estimate": "< -0.25"},
      {"substance": "GLLHEGIQMVGYVPPSMRFL", "growth estimate": "< -0.25"},
      {"substance": "GLLRECHFKGVRKESGRLTT", "growth estimate": -0.249},
      {"substance": "GLLRHSRGESAESPRASSRP", "growth estimate": "< -0.25"},
      {"substance": "GLLWEVN", "growth estimate": "< -0.25"},
      {"substance": "GLNAVVVNTCTRTPQG", "growth estimate": "< -0.25"},
      {"substance": "GLNTYNAPS", "growth estimate": "< -0.25"},
      {"substance": "GLPGLLRAR", "growth estimate": "< -0.25"},
      {"substance": "GLPGSRR", "growth estimate": "< -0.25"},
      {"substance": "GLPLETWRNG", "growth estimate": "< -0.25"},
      {"substance": "GLPMSSFCNQVLLGLFSFLL", "growth estimate": "< -0.25"},
      {"substance": "GLPPFQLKAMLLTDPIVCCA", "growth estimate": "< -0.25"},
      {"substance": "GLQDWTGRPEPV", "growth estimate": "< -0.25"},
      {"substance": "GLQLAQPERLYGEASGKGVL", "growth estimate": "< -0.25"},
      {"substance": "GLQLNSAWERY", "growth estimate": "< -0.25"},
      {"substance": "GLRAGTILGNLYRL", "growth estimate": "< -0.25"},
      {"substance": "GLRAIFSGTSLAESNLLGPA", "growth estimate": "< -0.25"},
      {"substance": "GLRCWWRHTIVLGPVDLVPP", "growth estimate": "< -0.25"},
      {"substance": "GLRFCLLCSKLSEEPPSFI", "growth estimate": "< -0.25"},
      {"substance": "GLRGCPPLKSEDVTSYTCST", "growth estimate": "< -0.25"},
      {"substance": "GLRLNRWIDLTGFRWQSESQ", "growth estimate": "< -0.25"},
      {"substance": "GLRREAASHFVRVVRRTN", "growth estimate": "< -0.25"},
      {"substance": "GLRS", "growth estimate": "< -0.25"},
      {"substance": "GLRSVRGIRFVRVDGHSAHG", "growth estimate": "< -0.25"},
      {"substance": "GLRT", "growth estimate": "< -0.25"},
      {"substance": "GLRVSRVQSG", "growth estimate": "< -0.25"},
      {"substance": "GLRYTSGRPISPPHHLPQGG", "growth estimate": "< -0.25"},
      {"substance": "GLSFVVRDDSRSTGAVGS", "growth estimate": "< -0.25"},
      {"substance": "GLSGVVVSRLRGTPGESVCR", "growth estimate": "< -0.25"},
      {"substance": "GLSIQERDIPDRELGPFGDP", "growth estimate": "< -0.25"},
      {"substance": "GLSLIHARGNHGL", "growth estimate": "< -0.25"},
      {"substance": "GLSPRLTIIQVWYQFCRRDV", "growth estimate": "< -0.25"},
      {"substance": "GLSRGCAAWRIWLRVMNVTG", "growth estimate": "< -0.25"},
      {"substance": "GLSSSGTNSIGVRLHEPWRG", "growth estimate": "< -0.25"},
      {"substance": "GLSTRRDSTFTHVRCWSVMK", "growth estimate": "< -0.25"},
      {"substance": "GLTGRWGKA", "growth estimate": "< -0.25"},
      {"substance": "GLTL", "growth estimate": "< -0.25"},
      {"substance": "GLTSV", "growth estimate": "< -0.25"},
      {"substance": "GLTV", "growth estimate": "< -0.25"},
      {"substance": "GLTVLRRMLSAQVVNYCDAV", "growth estimate": "< -0.25"},
      {"substance": "GLVARRCCRDRWALCHPSGT", "growth estimate": "< -0.25"},
      {"substance": "GLVEACNFKRMVTSYCYSHM", "growth estimate": "< -0.25"},
      {"substance": "GLVGLT", "growth estimate": "< -0.25"}
    ]}
  ]
}
